Experimental data: publication doi:10.1101/2022.02.05.479199
Residue numbers refer to the chain shown, from its start. These are yes or no findings as the source states them, for the method shown. Some entries that bind do so weakly or less than the wild type. One block for each binder: values may come before it.

Assays:
[1] = molecular target: T1, Replication protein A (Saccharomyces cerevisiae RPA) (S. cerevisiae) (UniProt P22336+P26754+P26755); assay: HDX-MS
[2] = molecular target: T1, Replication protein A (Saccharomyces cerevisiae RPA) (S. cerevisiae); assay: SEC
[3] = molecular target: T1, Replication protein A (Saccharomyces cerevisiae RPA) (S. cerevisiae); assay: SEC; remark: listed apart in the source
[4] = molecular target: T1, Replication protein A (Saccharomyces cerevisiae RPA) (S. cerevisiae); assay: SEC; remark: listed apart in the source
[5] = molecular target: T1, Replication protein A (Saccharomyces cerevisiae RPA) (S. cerevisiae); assay: cross-linking
[6] = molecular target: T1, Replication protein A (Saccharomyces cerevisiae RPA) (S. cerevisiae); assay: AUC

binding [1]: binds | binding [2]: binds | binding [3]: binds | binding [4]: binds | binding [5]: binds
B1: Regulator of Ty1 Transposition 105 (Rtt105) (protein, UniProt P40063 1-208)
chain: MYSNHNLNSDDCCFDWNEEKAAELQRTGVSFDRSLTPQSLRTSTRRLSEENKQQSGTMHIDTSPSVVSDIISSRRDRSQDFFGPHSSSPIAPSERQRADQRSRLESMRLTRRRDKMTKVRGGLEKMEEMIMQGEHLREMQRLKQEAQKNALPSDMAEYMEWQNNEDLEDDELLAFIEKQETYKNELEHFLNNANKNVYENNSYPNSHT

binding [6]: binds weakly
B2: Rtt105^Cy5 (protein, UniProt P40063 1-208)
chain: B1 chain with C13S
modifications: Cy5 (maleimide) on Cys-12
